According to patent US10570184B2, “GLP-1/glucagon receptor co-agonists for medical use” (Novo Nordisk A/S, priority 2014, dated 2020):
At least one compound was matched to its structure with a doubt left. Starred links: 1 amine or outer side, 2 acyl side, 3 side chain; linkers in the order of their positions; H or OH if unused. Non-standard residues stand in square brackets, D forms with d. Residues, ends and D or L forms follow the SMILES beside them. Groups on a side chain read outwards from the residue. *: point of attachment. C18 diacid = O=C(O)CCCCCCCCCCCCCCCCC(=O)*; γGlu = O=C(O)[C@H](CCC(=O)[*:2])N[*:1]; AEEA = NCCOCCOCC(=O)O; Aib = CC(C)(N)C(=O)O

Assay: Assay (III) ThT fibrillation assay for physical stability
Type: physicochemical
Settings: 250 μM in 10 mM HEPES buffer, 37° C., shaking 960 rpm
Text: The purpose of this assay is to assess the physical stability of the glucagon derivatives of the invention in aqueous solutions. Low physical stability of a peptide may lead to amyloid fibril formation, which is observed as well-ordered, thread-like macromolecular structures in the sample, which eventually may lead to gel formation. This has traditionally been measured by visual inspection of the sample. However, that kind of measurement is very subjective and depending on the observer. Therefore, the application of a small molecule indicator probe is much more advantageous. Thioflavin T (ThT) is such a probe and has a distinct fluorescence signature when binding to fibrils [Naiki et al. (1989) Anal. Biochem. 177, 244-249; LeVine (1999) Methods. Enzymol. 309, 274-284]. […] The constant t0 is the time needed to reach 50% of maximum fluorescence. The two important parameters describing fibril formation are the lag-time calculated by t0−2τ and the apparent rate constant kapp 1/τ. Samples were prepared freshly before each assay. Each sample composition is described in the legends. The pH of the sample was adjusted to the desired value using appropriate amounts of concentrated NaOH and HCl. Thioflavin T was added to the samples from a stock solution in H2O to a final concentration of 1 μM. Sample aliquots of 200 μl (250 μM of the glucagon derivative in 10 mM HEPES buffer, pH 7.5) were placed in a 96 well microtiter plate (Packard OptiPlate™-96, white polystyrene). Usually, four or eight replica of each sample (corresponding to one test condition) were placed in one column of wells. The plate was sealed with Scotch Pad (Qiagen). Incubation at given temperature, shaking and measurement of the ThT fluorescence emission were done in a Fluoroskan Ascent FL fluorescence platereader (Thermo Labsystems). The temperature was adjusted to 37° C. The plate was incubated with orbital shaking adjusted to 960 rpm with an amplitude of 1 mm. Fluorescence measurement was done using excitation through a 444 nm filter and measurement of emission through a 485 nm filter. Each run was initiated by incubating the plate at the assay temperature for 10 min. The plate was measured every 20 minutes for a desired period of time. Between each measurement, the plate was shaken and heated as described. After completion of the ThT assay the four or eight replica of each sample was pooled and centrifuged at 20000 rpm for 30 minutes at 18° C. The supernatant was filtered through a 0.22 μm filter and an aliquot was transferred to a HPLC vial. The concentration of peptide in the initial sample and in the filtered supernatant was determined by reverse phase HPLC using an appropriate standard as reference. The percentage fraction the concentration of the filtered sample constituted of the initial sample concentration was reported as the recovery. The measurement points were saved in Microsoft Excel format for further processing and curve drawing and fitting was performed using GraphPad Prism. The background emission from ThT in the absence of fibrils was negligible. The data points are typically a mean of four or eight samples and shown with standard deviation error bars. Only data obtained in the same experiment (i.e. samples on the same plate) are presented in the same graph ensuring a relative measure of fibrillation between experiments. The data set may be fitted to Eq. (1).

Row | Compound | ThT Assay Lag time (h) [Assay (III), pH 7.5]
1 | CC[C@H](C)[C@H](NC(=O)[C@H](CC(C)C)NC(=O)[C@H](Cc1c[nH]c2ccccc12)NC(=O)[C@H](CCC(N)=O)NC(=O)[C@@H](NC(=O)[C@H](Cc1ccccc1)NC(=O)[C@H](CCC(=O)O)NC(=O)[C@H](CCCNC(=N)N)NC(=O)[C@H](C)NC(=O)[C@H](CCCNC(=N)N)NC(=O)[C@H](CCCNC(=N)N)NC(=O)[C@H](C)NC(=O)[C@H](CC(=O)O)NC(=O)[C@H](CC(C)C)NC(=O)[C@H](Cc1ccc(O)cc1)NC(=O)[C@H](CCCCN)NC(=O)[C@H](CO)NC(=O)[C@H](CC(C)C)NC(=O)[C@H](CC(=O)O)NC(=O)[C@H](CO)NC(=O)[C@@H](NC(=O)[C@H](Cc1ccccc1)NC(=O)[C@@H](NC(=O)CNC(=O)[C@H](CCC(N)=O)NC(=O)C(C)(C)NC(=O)[C@@H](N)Cc1c[nH]cn1)[C@@H](C)O)[C@@H](C)O)C(C)C)C(=O)N[C@@H](CCCCNC(=O)COCCOCCNC(=O)COCCOCCNC(=O)CC[C@H](NC(=O)CC[C@H](NC(=O)CC[C@H](NC(=O)CCCCCCCCCCCCCCCCC(=O)O)C(=O)O)C(=O)O)C(=O)O)C(=O)N[C@H](C(N)=O)[C@@H](C)O [Chem. 6, N^ε28-[2-[2-[2-[[2-[2-[2-[[(4S)-4-carboxy-4-[[(4S)-4-carboxy-4-[[(4S)-4-carboxy-4-(17-carboxyheptadecanoylamino)butanoyl]amino]butanoyl]amino]butanoyl]amino]ethoxy]ethoxy]acetyl]amino]ethoxy]ethoxy]acetyl]-[Aib2,Leu10,Ala16,Arg20,Glu21,Ile27,Lys28]-Glucagon amide] (H-H[Aib]QGTFTSDLSKYLDARRAREFVQWLIK([AEEA-AEEA-γGlu-γGlu-γGlu-C18 diacid])T-NH2; N-terminus assumed) | 34.0 h
2 | CC[C@H](C)[C@H](NC(=O)[C@H](CC(C)C)NC(=O)[C@H](Cc1c[nH]c2ccccc12)NC(=O)[C@H](CCC(N)=O)NC(=O)[C@@H](NC(=O)[C@H](Cc1ccccc1)NC(=O)[C@H](CC(=O)O)NC(=O)[C@H](CCC(N)=O)NC(=O)[C@H](C)NC(=O)[C@H](CCCNC(=N)N)NC(=O)[C@H](CCCNC(=N)N)NC(=O)[C@H](CO)NC(=O)[C@H](CCC(=O)O)NC(=O)[C@H](CC(C)C)NC(=O)[C@H](Cc1ccc(O)cc1)NC(=O)[C@H](CCCCN)NC(=O)[C@H](CO)NC(=O)[C@H](CC(C)C)NC(=O)[C@H](CC(=O)O)NC(=O)[C@H](CO)NC(=O)[C@@H](NC(=O)[C@H](Cc1ccccc1)NC(=O)[C@@H](NC(=O)CNC(=O)[C@H](CCC(N)=O)NC(=O)C(C)(C)NC(=O)[C@@H](N)Cc1c[nH]cn1)[C@@H](C)O)[C@@H](C)O)C(C)C)C(=O)N[C@@H](CCCCNC(=O)COCCOCCNC(=O)COCCOCCNC(=O)CC[C@H](NC(=O)CC[C@H](NC(=O)CC[C@H](NC(=O)CCCCCCCCCCCCCCCCC(=O)O)C(=O)O)C(=O)O)C(=O)O)C(=O)N[C@H](C(N)=O)[C@@H](C)O [Chem. 8, N^ε28-[2-[2-[2-[[2-[2-[2-[[(4S)-4-carboxy-4-[[(4S)-4-carboxy-4-[[(4S)-4-carboxy-4-(17-carboxyheptadecanoylamino)butanoyl]amino]butanoyl]amino]butanoyl]amino]ethoxy]ethoxy]acetyl]amino]ethoxy]ethoxy]acetyl]-[Aib2,Leu10,Glu15,Ile27,Lys28]-Glucagon amide] (H-H[Aib]QGTFTSDLSKYLESRRAQDFVQWLIK([AEEA-AEEA-γGlu-γGlu-γGlu-C18 diacid])T-NH2; N-terminus assumed) | 45.0 h
3 | CC[C@H](C)[C@H](NC(=O)[C@H](CC(C)C)NC(=O)[C@H](Cc1c[nH]c2ccccc12)NC(=O)[C@H](CCC(N)=O)NC(=O)[C@@H](NC(=O)[C@H](Cc1ccccc1)NC(=O)[C@H](CC(=O)O)NC(=O)[C@H](CCC(N)=O)NC(=O)[C@H](C)NC(=O)[C@H](CCCNC(=N)N)NC(=O)[C@H](CCCNC(=N)N)NC(=O)[C@H](C)NC(=O)[C@H](CC(=O)O)NC(=O)[C@H](CC(C)C)NC(=O)[C@H](Cc1ccc(O)cc1)NC(=O)[C@H](CCCCN)NC(=O)[C@H](CO)NC(=O)[C@H](CC(C)C)NC(=O)[C@H](CC(=O)O)NC(=O)[C@H](CO)NC(=O)[C@@H](NC(=O)[C@H](Cc1ccccc1)NC(=O)[C@@H](NC(=O)CNC(=O)[C@H](CCC(N)=O)NC(=O)C(C)(C)NC(=O)[C@@H](N)Cc1c[nH]cn1)[C@@H](C)O)[C@@H](C)O)C(C)C)C(=O)N[C@@H](CCCCNC(=O)COCCOCCNC(=O)COCCOCCNC(=O)CC[C@H](NC(=O)CC[C@H](NC(=O)CC[C@H](NC(=O)CCCCCCCCCCCCCCCCC(=O)O)C(=O)O)C(=O)O)C(=O)O)C(=O)N[C@H](C(N)=O)[C@@H](C)O [Chem. 7, N^ε28-[2-[2-[2-[[2-[2-[2-[[(4S)-4-carboxy-4-[[(4S)-4-carboxy-4-[[(4S)-4-carboxy-4-(17-carboxyheptadecanoylamino)butanoyl]amino]butanoyl]amino]butanoyl]amino]ethoxy]ethoxy]acetyl]amino]ethoxy]ethoxy]acetyl]-[Aib2,Leu10,Ala16,Ile27,Lys28]-Glucagon amide] (H-H[Aib]QGTFTSDLSKYLDARRAQDFVQWLIK([AEEA-AEEA-γGlu-γGlu-γGlu-C18 diacid])T-NH2; N-terminus assumed) | 45.0 h
4 | CC[C@H](C)[C@H](NC(=O)[C@H](CC(C)C)NC(=O)[C@H](Cc1c[nH]c2ccccc12)NC(=O)[C@H](CCCCNC(=O)COCCOCCNC(=O)COCCOCCNC(=O)CC[C@H](NC(=O)CC[C@H](NC(=O)CC[C@H](NC(=O)CCCCCCCCCCCCCCCCC(=O)O)C(=O)O)C(=O)O)C(=O)O)NC(=O)[C@@H](NC(=O)[C@H](Cc1ccccc1)NC(=O)[C@H](CC(=O)O)NC(=O)[C@H](CCCNC(=N)N)NC(=O)[C@H](C)NC(=O)[C@H](CCCNC(=N)N)NC(=O)[C@H](CCCNC(=N)N)NC(=O)[C@H](C)NC(=O)[C@H](CC(=O)O)NC(=O)[C@H](CC(C)C)NC(=O)[C@H](Cc1ccc(O)cc1)NC(=O)[C@H](CCCCN)NC(=O)[C@H](CO)NC(=O)[C@H](Cc1ccc(O)cc1)NC(=O)[C@H](CC(=O)O)NC(=O)[C@H](CO)NC(=O)[C@@H](NC(=O)[C@H](Cc1ccccc1)NC(=O)[C@@H](NC(=O)CNC(=O)[C@H](CCC(N)=O)NC(=O)C(C)(C)NC(=O)[C@@H](N)Cc1c[nH]cn1)[C@@H](C)O)[C@@H](C)O)C(C)C)C(=O)N[C@@H](CO)C(=O)N[C@H](C(N)=O)[C@@H](C)O [Chem. 1, N^ε24-[2-[2-[2-[[2-[2-[2-[[(4S)-4-carboxy-4-[[(4S)-4-carboxy-4-[[(4S)-4-carboxy-4-(17-carboxyheptadecanoylamino)butanoyl]amino]butanoyl]amino]butanoyl]amino]ethoxy]ethoxy]acetyl]amino]ethoxy]ethoxy]acetyl]-[Aib2,Ala16,Arg20,Lys24,Ile27,Ser28]-Glucagon amide] (H-H[Aib]QGTFTSDYSKYLDARRARDFVK([AEEA-AEEA-γGlu-γGlu-γGlu-C18 diacid])WLIST-NH2) | 45.0 h
5 | CC[C@H](C)[C@H](NC(=O)[C@H](CC(C)C)NC(=O)[C@H](Cc1c[nH]c2ccccc12)NC(=O)[C@H](CCC(N)=O)NC(=O)[C@@H](NC(=O)[C@H](Cc1ccccc1)NC(=O)[C@H](CC(=O)O)NC(=O)[C@H](CCCNC(=N)N)NC(=O)[C@H](C)NC(=O)[C@H](CCCNC(=N)N)NC(=O)[C@H](CCCNC(=N)N)NC(=O)[C@H](C)NC(=O)[C@H](CC(=O)O)NC(=O)[C@H](CC(C)C)NC(=O)[C@H](Cc1ccc(O)cc1)NC(=O)[C@H](CCCCN)NC(=O)[C@H](CO)NC(=O)[C@H](CC(C)C)NC(=O)[C@H](CC(=O)O)NC(=O)[C@H](CO)NC(=O)[C@@H](NC(=O)[C@H](Cc1ccccc1)NC(=O)[C@@H](NC(=O)CNC(=O)[C@H](CCC(N)=O)NC(=O)C(C)(C)NC(=O)[C@@H](N)Cc1c[nH]cn1)[C@@H](C)O)[C@@H](C)O)C(C)C)C(=O)N[C@@H](CCCCNC(=O)COCCOCCNC(=O)COCCOCCNC(=O)CC[C@H](NC(=O)CC[C@H](NC(=O)CC[C@H](NC(=O)CCCCCCCCCCCCCCCCC(=O)O)C(=O)O)C(=O)O)C(=O)O)C(=O)N[C@H](C(N)=O)[C@@H](C)O [Chem. 5, N^ε28-[2-[2-[2-[[2-[2-[2-[[(4S)-4-carboxy-4-[[(4S)-4-carboxy-4-[[(4S)-4-carboxy-4-(17-carboxyheptadecanoylamino)butanoyl]amino]butanoyl]amino]butanoyl]amino]ethoxy]ethoxy]acetyl]amino]ethoxy]ethoxy]acetyl]-[Aib2,Leu10,Ala16,Arg20,Ile27,Lys28]-Glucagon amide] (H-H[Aib]QGTFTSDLSKYLDARRARDFVQWLIK([AEEA-AEEA-γGlu-γGlu-γGlu-C18 diacid])T-NH2; N-terminus assumed) | 45.0 h
